Consider one molecule from paper PMC7933954 (EMBO Molecular Medicine, 2021).

By UniProt entry, the sequences of proteins in these tests, tags left out. Residues count along the entry.
UniProt Q9NZQ7, residues 19-290: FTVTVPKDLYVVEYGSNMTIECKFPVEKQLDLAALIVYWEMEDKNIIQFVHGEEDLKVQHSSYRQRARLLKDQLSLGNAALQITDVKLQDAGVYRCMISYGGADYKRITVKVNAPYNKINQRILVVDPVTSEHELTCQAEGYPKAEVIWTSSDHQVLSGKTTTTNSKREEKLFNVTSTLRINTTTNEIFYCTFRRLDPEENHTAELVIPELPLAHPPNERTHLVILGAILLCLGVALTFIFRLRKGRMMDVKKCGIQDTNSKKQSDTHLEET

Results are given in words; binding and its absence hold for the method and conditions named. Binding seen in cells or lysates may run through a third protein. Some results given as binding are weak or reduced against the parent protein; the word gives no strength.

The experiment concerns the target programmed death ligand‐1 (PD‐L1) (human (endogenous in MDA‐MB‐436 and OVCAR‐3)) (UniProt Q9NZQ7). The experiment is described as follows: co-IP; native IP: MDA‐MB‐436 or OVCAR‐3 cells treated 6 h with KMTR2 or IgG1 control ± ROCK1i (GSK269962); avelumab (IgG4‐Fc) added to the medium for 1 h at 4°C to hold surface PD‐L1; lysis in 20 mM Tris pH 7.5, 150 mM NaCl, 1 mM EDTA, 10% glycerol, 1% Triton‐X; anti‐human IgG4‐specific beads; blots for PD‐L1, CMTM6, ROCK1.

B1: CMTM6 (protein, UniProt Q9NX76 1-183)
chain: MENGAVYSPTTEEDPGPARGPRSGLAAYFFMGRLPLLRRVLKGLQLLLSLLAFICEEVVSQCTLCGGLYFFEFVSCSAFLLSLLILIVYCTPFYERVDTTKVKSSDFYITLGTGCVFLLASIIFVSTHDRTSAEIAAIVFGFIASFMFLLDFITMLYEKRQESQLRKPENTTRAEALTEPLNA
In the case of B1, the binding entry is given as “binds”.
